We go through 1 substance from publication PMC3572160.

By UniProt entry, the sequences of proteins in these tests, tags left out.
UniProt Q07157: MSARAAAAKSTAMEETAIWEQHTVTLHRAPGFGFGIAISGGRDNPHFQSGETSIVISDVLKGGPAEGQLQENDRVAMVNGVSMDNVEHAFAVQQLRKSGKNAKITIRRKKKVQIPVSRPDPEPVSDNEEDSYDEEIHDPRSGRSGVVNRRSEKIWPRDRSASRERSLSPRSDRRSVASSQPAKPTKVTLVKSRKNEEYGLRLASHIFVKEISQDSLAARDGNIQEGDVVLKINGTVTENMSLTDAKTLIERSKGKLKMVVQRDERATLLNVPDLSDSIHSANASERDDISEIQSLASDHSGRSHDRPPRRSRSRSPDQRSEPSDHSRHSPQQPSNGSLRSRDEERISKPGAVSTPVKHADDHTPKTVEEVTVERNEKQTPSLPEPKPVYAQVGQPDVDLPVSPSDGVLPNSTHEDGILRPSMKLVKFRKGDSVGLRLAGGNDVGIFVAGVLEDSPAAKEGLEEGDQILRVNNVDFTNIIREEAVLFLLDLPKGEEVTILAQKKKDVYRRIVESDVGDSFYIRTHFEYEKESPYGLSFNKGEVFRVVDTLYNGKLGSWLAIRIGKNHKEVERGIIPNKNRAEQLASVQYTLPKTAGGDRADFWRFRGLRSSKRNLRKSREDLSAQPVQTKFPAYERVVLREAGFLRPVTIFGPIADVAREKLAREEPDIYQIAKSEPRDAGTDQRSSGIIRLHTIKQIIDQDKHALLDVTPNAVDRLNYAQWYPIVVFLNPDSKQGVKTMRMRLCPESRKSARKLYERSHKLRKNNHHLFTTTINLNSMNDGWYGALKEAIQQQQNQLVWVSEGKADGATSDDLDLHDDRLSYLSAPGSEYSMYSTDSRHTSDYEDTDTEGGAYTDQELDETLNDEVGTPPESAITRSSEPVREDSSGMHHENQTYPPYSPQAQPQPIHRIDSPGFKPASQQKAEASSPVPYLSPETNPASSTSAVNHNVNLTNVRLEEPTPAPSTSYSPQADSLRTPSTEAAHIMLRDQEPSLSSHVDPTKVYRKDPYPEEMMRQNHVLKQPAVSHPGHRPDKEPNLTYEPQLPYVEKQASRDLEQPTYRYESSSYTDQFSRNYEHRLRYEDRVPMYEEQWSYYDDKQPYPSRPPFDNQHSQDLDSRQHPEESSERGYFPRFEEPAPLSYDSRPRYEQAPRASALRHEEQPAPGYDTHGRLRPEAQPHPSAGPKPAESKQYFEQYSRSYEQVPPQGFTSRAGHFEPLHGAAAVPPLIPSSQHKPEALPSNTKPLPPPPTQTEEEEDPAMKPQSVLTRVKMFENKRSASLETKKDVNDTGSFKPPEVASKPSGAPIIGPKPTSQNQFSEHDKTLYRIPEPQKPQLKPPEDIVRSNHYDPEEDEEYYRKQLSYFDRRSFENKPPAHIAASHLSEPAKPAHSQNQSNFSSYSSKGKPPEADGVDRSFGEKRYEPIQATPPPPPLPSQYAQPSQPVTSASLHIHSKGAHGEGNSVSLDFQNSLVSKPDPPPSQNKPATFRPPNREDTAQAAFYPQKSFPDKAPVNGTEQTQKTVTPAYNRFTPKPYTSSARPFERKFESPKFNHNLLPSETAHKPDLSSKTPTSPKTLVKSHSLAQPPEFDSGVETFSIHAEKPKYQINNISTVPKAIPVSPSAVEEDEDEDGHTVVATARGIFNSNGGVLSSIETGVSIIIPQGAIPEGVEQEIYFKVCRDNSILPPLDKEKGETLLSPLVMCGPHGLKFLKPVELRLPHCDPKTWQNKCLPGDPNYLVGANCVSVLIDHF
UniProt P35222: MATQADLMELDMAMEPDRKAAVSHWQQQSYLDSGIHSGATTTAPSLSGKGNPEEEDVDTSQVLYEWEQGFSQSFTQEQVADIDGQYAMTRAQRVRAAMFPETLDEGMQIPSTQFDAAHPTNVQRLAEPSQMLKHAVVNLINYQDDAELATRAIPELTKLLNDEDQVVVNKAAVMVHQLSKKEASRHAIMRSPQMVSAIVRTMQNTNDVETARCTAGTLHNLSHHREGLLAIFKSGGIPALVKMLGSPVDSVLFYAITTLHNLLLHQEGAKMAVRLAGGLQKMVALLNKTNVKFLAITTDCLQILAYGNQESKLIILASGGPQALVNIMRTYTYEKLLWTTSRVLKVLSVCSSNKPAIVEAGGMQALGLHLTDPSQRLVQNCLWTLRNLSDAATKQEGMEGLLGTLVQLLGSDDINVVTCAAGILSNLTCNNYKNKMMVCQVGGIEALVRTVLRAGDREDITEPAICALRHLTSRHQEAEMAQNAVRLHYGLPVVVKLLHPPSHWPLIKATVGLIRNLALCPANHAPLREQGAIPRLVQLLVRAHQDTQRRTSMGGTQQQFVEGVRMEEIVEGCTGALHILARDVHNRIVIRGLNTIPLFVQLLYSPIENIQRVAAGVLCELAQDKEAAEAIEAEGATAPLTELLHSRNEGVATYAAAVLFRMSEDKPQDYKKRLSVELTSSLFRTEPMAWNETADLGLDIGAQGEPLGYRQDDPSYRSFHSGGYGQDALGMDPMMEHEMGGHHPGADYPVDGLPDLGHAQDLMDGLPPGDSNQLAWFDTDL

These are yes or no findings as the source states them, for the method shown. Binding seen in cells or lysates may run through a third protein. Some results given as binding are weak or reduced against the parent protein; the word gives no strength.

This assay deals with ZO-1 (human (endogenous in BMVEC)) (UniProt Q07157). The experiment in a line: co-IP; BMVEC monolayers without or with escalating doses (1-10 µM) of SB216763; fractions with 500 µg total protein precleared with protein A-Sepharose, incubated with antibodies to ZO-1 at 4°C overnight, washed 5 times with RIPA buffer; immunoblotted for β-catenin.

Regarding β-catenin (from UniProt P35222 1-781), the binding result is listed as “binds”.
